pIC50: −log10 of the molar value. At least one structure is not confirmed: it was looked up by name or label, or the drawing left a doubt. Some results were stated once for a whole list of compounds, not compound by compound.
Tested on: monoclonal antibody specific to the catecholamine metabolite containing 3-methoxy, 4-hydroxy group therein
Test: competitive EIA on VMA-BSA-immobilized microtiter plate: reactivity of the monoclonal antibody with catecholamine metabolites and their catechols
Format: binding, BALB/c mice

COc1cc(CC(=O)O)ccc1O [Homovanillylmandelic acid]
pIC50 (competitive EIA, immobilized VMA-BSA, 37°C for 60 minutes, read-out: IC₅₀ value (a concentration of antigen necessary for 50% inhibition in the reaction system)): 6.17 | reactivity of the monoclonal antibody with the substance (purified monoclonal antibody): particularly well reactive

— EP0352817A2, “Monoclonal antibody to catecholamine metabolite and quantitative assay for catecholamine metabolite” (ORIENTAL YEAST CO., LTD., priority 1988, dated 1990)
